The values that follow come from the supplement of paper PMC3334620.

In all, about 33,000 sequences were measured (“E-score (-0.5 to 0.5)”: median about -0.0034, highest 2% from about 0.25 on). This is one part of the list.

The assay deals with T1, Yap3 (UniProt P38749).
T1 sequence: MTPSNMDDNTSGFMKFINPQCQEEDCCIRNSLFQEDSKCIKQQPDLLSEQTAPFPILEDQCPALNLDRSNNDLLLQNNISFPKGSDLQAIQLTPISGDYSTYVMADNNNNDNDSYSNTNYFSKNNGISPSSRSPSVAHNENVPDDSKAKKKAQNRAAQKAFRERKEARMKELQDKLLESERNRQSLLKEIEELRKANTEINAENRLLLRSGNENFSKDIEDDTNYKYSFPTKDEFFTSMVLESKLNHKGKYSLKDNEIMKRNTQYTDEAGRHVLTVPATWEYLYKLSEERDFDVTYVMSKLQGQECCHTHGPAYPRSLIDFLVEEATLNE
The assay can be described thus: PBM E-score (8-mer binding enrichment) (E-score (-0.5 to 0.5)); higher = stronger / more preferred TF binding. To be noted: protein concentration: 100 nM; construct: GST-full length. An outline of the steps:
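Using PURExpress in vitro transcription/translation, GST-tagged yeast transcription factors were made in full-length or DNA-binding-domain form. These were applied at about 100-200 nM to double-stranded universal all-10-mer Agilent arrays, and bound protein was detected with fluorescent anti-GST. Scans were normalised with masliner before the Universal PBM Analysis Suite assigned E-scores to ungapped eight-base words pooled with their reverse complements.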
Take TAACATCA: the “PBM E-score” value worked out at 0.0784. As to GAATCCGC, the “PBM E-score” value is -0.121.

For TAAACTCA, the “PBM E-score” value was 0.0977. CGGCGCCG: the “PBM E-score” value came to 0.0469.

For CGAGTCAA, the “PBM E-score” value is -0.133. As for CGACTACG, the “PBM E-score” value was -0.0871. As for CTGATACA, the “PBM E-score” value stood at 0.0245. Regarding CGCAGATC, the “PBM E-score” value is -0.125.

For the sequence AAACTCAT, the “PBM E-score” value was found to be 0.219. As to AGCCACAC, the “PBM E-score” value amounted to 0.128.

On to ATACCGTC, for which the “PBM E-score” value amounted to 0.197. CAATTGTG: the “PBM E-score” value was found to be 0.188. For the sequence AAGTCTCC, the “PBM E-score” value is -0.0848. As for CATGAGCA, the figure is -0.106; as for ATGCATGA, 0.167. With CTAGACTC, the “PBM E-score” value is -0.305. As for AAGCCTAA, the figure is 0.00919; as for GCTACCAC, -0.173. Turning to CAGCTGTC, the “PBM E-score” value turned out to be 0.148.

Turning to AGGTGCAT, the “PBM E-score” value is -0.105. Consider AACACCGA, for which the “PBM E-score” value was -0.0814. As for AAGGGGTA, the figure is -0.233; as for CGAAACAG, 0.0681.

TGCGTGAA: the “PBM E-score” value came out at 0.107. With AGACATGC the figure was -0.183; with AACTCTCC, -0.14. For the sequence ATGAAGGA, the “PBM E-score” value came to 0.0695. Regarding CTCTTTGA, the “PBM E-score” value is -0.0682. With ACCTCGCG, the “PBM E-score” value is -0.0922. On to GCCACCCA, for which the “PBM E-score” value is -0.179. ATCAATTG: the “PBM E-score” value was 0.159. Consider ACCTACCG, for which the “PBM E-score” value came out at 0.00349. For the sequence CGCTGAAG, the “PBM E-score” value is -0.0508.

With CCGTTGCA, the “PBM E-score” value was found to be 0.00625. As for CAATTGAA, the figure is -0.032; as for GTTATGAA, 0.172.

As for ACGTGCAG, the “PBM E-score” value is -0.1. In the case of CTGGATGC, the “PBM E-score” value was -0.33. For AACTCCTT, the “PBM E-score” value worked out at 0.0691. As for GAGTCATC, the figure is -0.00184; as for GGGGATGA, -0.00038; as for ACGACCTG, -0.18.

For CCCACACA, the “PBM E-score” value is -0.0183.

As to TAAGCCGA, the “PBM E-score” value amounted to 0.243. As for AAGTGAGC, the “PBM E-score” value was found to be 0.00127. On to ACTACCTC, for which the “PBM E-score” value stood at 0.00605. Turning to CAAACAAC, the “PBM E-score” value came to 0.251.

For the sequence ATAAACCC, the “PBM E-score” value is 0.14. For the sequence ACTTCTGA, the “PBM E-score” value was -0.0121.

Consider GTAAGCTA, for which the “PBM E-score” value came out at 0.215. As for ACTTCGTA, the figure is -0.0349. AGCGTCAG: the “PBM E-score” value is -0.119. As to AAGAATCG, the “PBM E-score” value amounted to 0.217. Take GACAACGC: the “PBM E-score” value came to 0.00149. Turning to CCTGATGA, the “PBM E-score” value is -0.00067. Take ACTTACCC: the “PBM E-score” value was found to be 0.103. As to AGCGGGCA, the “PBM E-score” value was -0.3.

For ATTTTGAG, the “PBM E-score” value was 0.157. Take CGGTCACC: the “PBM E-score” value was -0.364.

ACAGTTTG: the “PBM E-score” value is -0.00034. In the case of CAGTTGCG, the “PBM E-score” value is 0.094. Turning to AAGCTAAA, the “PBM E-score” value is 0.129.

Consider CGAGCCAG, for which the “PBM E-score” value was -0.035.

For the sequence CCGTACAA, the “PBM E-score” value was determined as 0.0479. Regarding ATAACGTG, the “PBM E-score” value worked out at 0.161. Turning to ACACTGGT, the “PBM E-score” value was found to be 0.11. Turning to AATCCACC, the “PBM E-score” value is 0.153.

As for ACTGTACG, the “PBM E-score” value amounted to 0.0817.

As for CAAGCCAG, the “PBM E-score” value is -0.0253. With AGCCTATC, the “PBM E-score” value worked out at 0.00597. For the sequence CAAATGGA, the “PBM E-score” value is -0.0854.

On to ATGTCGCC, for which the “PBM E-score” value is 0.02. With AAAGTTAG the figure was 0.206; with CATACCAG, -0.0485.

Regarding GCTGGTTA, the “PBM E-score” value was found to be 0.0998. With ATATGAAG, the “PBM E-score” value is 0.0557. Take CACTAGCC: the “PBM E-score” value was -0.0154. For ATGTGCAA, the “PBM E-score” value was determined as 0.059.

CACAAAAA: the “PBM E-score” value came out at 0.193.

AACCGCCT: the “PBM E-score” value was -0.026. On to AGCAGGTG, for which the “PBM E-score” value amounted to 0.184. With ACGATTAT the figure was 0.19; with TAAGTAAA, 0.0756; with AGGAAATG, 0.0772. For AACAGCTC, the “PBM E-score” value is -0.134. On to GCGCCCCA, for which the “PBM E-score” value was -0.178.
